PMC8783683, “Plasma cell dependence on histone/protein deacetylase 11 reveals a therapeutic target in multiple myeloma” (JCI Insight, 2021)
These are yes or no findings as the source states them, for the method shown. Binding seen in cells or lysates may run through a third protein. Some entries that bind do so weakly or less than the wild type. Sequences can lack the tags named with a protein. One block for each binder: values may come before it.

Columns and labels:
[1] = molecular target: T1, IFN response factor 4 (IRF4), endogenous (human (endogenous in MM1.S and primary MM cells)) (UniProt Q15306); experiment: proximity ligation; primary MM cells from patient samples, cultured with the patient's serum, untreated or with LPS (5 μg/mL, 24 hours)
T1 sequence: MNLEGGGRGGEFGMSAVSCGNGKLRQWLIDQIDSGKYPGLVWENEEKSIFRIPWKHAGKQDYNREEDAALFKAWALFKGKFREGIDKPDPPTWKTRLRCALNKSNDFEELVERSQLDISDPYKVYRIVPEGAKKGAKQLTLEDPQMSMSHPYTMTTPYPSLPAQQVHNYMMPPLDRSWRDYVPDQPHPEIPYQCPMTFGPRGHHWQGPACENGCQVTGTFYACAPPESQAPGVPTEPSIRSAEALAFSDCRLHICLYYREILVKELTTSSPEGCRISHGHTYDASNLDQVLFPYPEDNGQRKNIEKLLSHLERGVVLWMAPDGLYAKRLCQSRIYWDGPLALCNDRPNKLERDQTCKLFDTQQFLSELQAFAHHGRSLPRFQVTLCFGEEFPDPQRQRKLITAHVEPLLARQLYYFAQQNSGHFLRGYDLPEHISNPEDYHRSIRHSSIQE

[2] = molecular target: T1, IFN response factor 4 (IRF4), endogenous (human (endogenous in MM1.S and primary MM cells)); experiment: proximity ligation; fixed parental MM1.S cells, untreated or with LPS (5 μg/mL); goat anti-IRF4 and mouse anti-HDAC11, Duolink kit, confocal microscopy
[3] = molecular target: T1, IFN response factor 4 (IRF4), endogenous (human (endogenous in MM1.S and primary MM cells)); experiment: co-IP; reciprocal co-IP from MM1.S cell lines stably transfected with HA-tagged WT or enzyme-inactive HDAC11; IP with anti-IRF4 and anti-HA, rabbit IgG as isotype control; protein A/G PLUS-Agarose
[4] = molecular target: T1, IFN response factor 4 (IRF4), endogenous (human (endogenous in MM1.S and primary MM cells)); experiment: proximity ligation; fixed MM1.S cells transfected with WT or enzymatically inactive HDAC11 or empty vector; goat anti-IRF4 and mouse anti-HDAC11, Duolink kit
[5] = molecular target: T2, HA-tagged WT HDAC11 (HDAC11^wt.HA) (UniProt Q96DB2); experiment: co-IP; reciprocal co-IP from MM1.S cell lines stably transfected with HA-tagged WT or enzyme-inactive HDAC11; IP with anti-IRF4 and anti-HA, rabbit IgG as isotype control; protein A/G PLUS-Agarose
T2 sequence: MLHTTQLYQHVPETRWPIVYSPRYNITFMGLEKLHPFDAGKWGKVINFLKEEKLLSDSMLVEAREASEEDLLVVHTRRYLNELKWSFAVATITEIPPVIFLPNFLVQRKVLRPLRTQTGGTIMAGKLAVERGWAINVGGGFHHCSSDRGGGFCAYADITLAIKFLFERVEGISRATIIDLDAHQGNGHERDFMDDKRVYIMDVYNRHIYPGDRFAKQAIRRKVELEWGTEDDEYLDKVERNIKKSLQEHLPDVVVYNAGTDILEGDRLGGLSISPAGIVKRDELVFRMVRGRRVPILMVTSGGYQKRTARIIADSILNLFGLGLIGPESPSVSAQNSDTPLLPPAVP

binding [1]: binds
binding [2]: binds
B1: histone/protein deacetylase 11 (HDAC11), endogenous (enzyme, UniProt Q96DB2 1-347, looked up)
chain: T2 sequence
notes: HDAC11, endogenous in human multiple myeloma cells (MM1.S line and primary patient MM cells), detected by mouse anti-HDAC11 in PLA; source: endogenous, MM1.S cells; endogenous, patient-derived primary MM cells

binding [3]: binds
binding [4]: binds
B2: HA-tagged WT HDAC11 (HDAC11^wt.HA) (enzyme, UniProt Q96DB2 1-347)
chain: T2 sequence

binding [5]: binds
B3: IFN response factor 4 (IRF4), endogenous (protein, UniProt Q15306 1-451)
chain: T1 sequence
